From article doi:10.1101/2023.04.25.538167
No constants are given. Whether binding was seen depends on the method and setting. Binding seen in cells or lysates may run through a third protein. Some results given as binding are weak or reduced against the parent protein; the word gives no strength. For some assays here: Tags and fused reporters may be left off the sequences shown.

T1: 3xFLAG-HA tagged PATZ1 (mouse) (UniProt Q5NBY9)
T1 sequence: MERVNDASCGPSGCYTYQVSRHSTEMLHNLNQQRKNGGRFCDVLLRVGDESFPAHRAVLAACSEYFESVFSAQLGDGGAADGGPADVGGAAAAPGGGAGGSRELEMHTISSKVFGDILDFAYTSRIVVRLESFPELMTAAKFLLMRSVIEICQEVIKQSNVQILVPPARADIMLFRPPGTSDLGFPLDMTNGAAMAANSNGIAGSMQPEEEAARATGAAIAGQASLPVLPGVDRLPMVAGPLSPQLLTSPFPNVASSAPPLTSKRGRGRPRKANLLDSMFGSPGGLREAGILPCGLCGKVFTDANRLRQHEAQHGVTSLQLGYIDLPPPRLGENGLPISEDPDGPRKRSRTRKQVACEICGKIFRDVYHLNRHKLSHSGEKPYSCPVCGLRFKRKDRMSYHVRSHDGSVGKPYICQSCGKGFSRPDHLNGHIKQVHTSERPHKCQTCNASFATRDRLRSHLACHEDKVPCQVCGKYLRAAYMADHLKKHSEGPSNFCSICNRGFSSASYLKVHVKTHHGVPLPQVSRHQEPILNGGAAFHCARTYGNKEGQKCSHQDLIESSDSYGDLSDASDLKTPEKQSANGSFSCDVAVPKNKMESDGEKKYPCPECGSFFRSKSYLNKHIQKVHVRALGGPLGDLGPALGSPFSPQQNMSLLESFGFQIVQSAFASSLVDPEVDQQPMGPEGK

T2: CβF-PATZ1 (mouse) (UniProt Q5NBY9)
T2 sequence: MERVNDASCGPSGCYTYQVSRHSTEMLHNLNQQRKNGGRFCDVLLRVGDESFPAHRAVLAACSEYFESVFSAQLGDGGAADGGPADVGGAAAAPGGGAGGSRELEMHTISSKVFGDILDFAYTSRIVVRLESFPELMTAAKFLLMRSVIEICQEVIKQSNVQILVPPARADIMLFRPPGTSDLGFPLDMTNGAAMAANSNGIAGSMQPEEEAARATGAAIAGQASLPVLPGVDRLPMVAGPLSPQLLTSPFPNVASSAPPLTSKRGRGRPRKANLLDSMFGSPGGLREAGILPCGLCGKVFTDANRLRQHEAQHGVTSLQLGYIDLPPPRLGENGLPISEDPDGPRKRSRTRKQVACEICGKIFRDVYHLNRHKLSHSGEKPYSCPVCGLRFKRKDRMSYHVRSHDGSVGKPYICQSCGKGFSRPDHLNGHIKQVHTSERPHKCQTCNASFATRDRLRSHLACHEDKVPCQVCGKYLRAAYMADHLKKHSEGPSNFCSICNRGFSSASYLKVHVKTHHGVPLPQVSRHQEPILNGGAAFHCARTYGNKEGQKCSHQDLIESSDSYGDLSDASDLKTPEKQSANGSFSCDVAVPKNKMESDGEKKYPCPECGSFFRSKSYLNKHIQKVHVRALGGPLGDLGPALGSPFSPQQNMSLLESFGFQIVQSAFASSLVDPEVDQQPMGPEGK


Tests used:
[1] = target: T1, 3xFLAG-HA tagged PATZ1 (mouse); assay: co-IP
CβF-PATZ1 (mouse) = target: T2, CβF-PATZ1 (mouse); assay: co-IP

Binder | binding [1] | binding (CβF-PATZ1 (mouse))
RAD21 (protein, UniProt Q61550 1-635) MFYAHFVLSKRGPLAKIWLAAHWDKKLTKAHVFECNLESSVESIISPKVKMALRTSGHLLLGVVRIYHRKAKYLLADCNEAFIKIKMAFRPGVVDLPEENREAAYNAITLPEEFHDFDQPLPDLDDIDVAQQFSLNQSRVEEITMREEVGNISILQENDFGDFGMDDREIMREGSAFEDDDMLVSTSASNLLLEPEQSTSNLNEKMNHLEYEDQYKDDNFGEGNDGGILDDKLISNNDGGIFDDPPALSEAGVMLPEQPAHDDMDEDDNGSLGGPDSPDSVDPVEPMPTMTDQTTLVPNEEEAFALEPIDITVKETKAKRKRKLIVDSVKELDSKTIRAQLSDYSDIVTTLDLAPPTKKLMMWKETGGVEKLFFLPAQPLWNNRLLKLFTRCLTPLVPEDLRKRRKGGEADNLDEFLKEFENPEVPREEQQPQQQQPQPQRDVIDEPIIEEPSRLQDSVMEASRTTIEESAMPPPPPQGVKRKAGQIDPEPSIPPQQVEQMEIPPVELPPEEPPNICQLIPELELLPEKEKEKEKEKEEEEEEEDEDASGGDQDQEERRWNKRTQQMLHGLQRALAKTGAESISLLELCRNTNRKQAAAKFYSFLVLKKQQAIELTQEEPYSDIIATPGPRFHII | binds | –
RAD21 (protein, UniProt O60216 1-631) MFYAHFVLSKRGPLAKIWLAAHWDKKLTKAHVFECNLESSVESIISPKVKMALRTSGHLLLGVVRIYHRKAKYLLADCNEAFIKIKMAFRPGVVDLPEENREAAYNAITLPEEFHDFDQPLPDLDDIDVAQQFSLNQSRVEEITMREEVGNISILQENDFGDFGMDDREIMREGSAFEDDDMLVSTTTSNLLLESEQSTSNLNEKINHLEYEDQYKDDNFGEGNDGGILDDKLISNNDGGIFDDPPALSEAGVMLPEQPAHDDMDEDDNVSMGGPDSPDSVDPVEPMPTMTDQTTLVPNEEEAFALEPIDITVKETKAKRKRKLIVDSVKELDSKTIRAQLSDYSDIVTTLDLAPPTKKLMMWKETGGVEKLFSLPAQPLWNNRLLKLFTRCLTPLVPEDLRKRRKGGEADNLDEFLKEFENPEVPREDQQQQHQQRDVIDEPIIEEPSRLQESVMEASRTNIDESAMPPPPPQGVKRKAGQIDPEPVMPPQQVEQMEIPPVELPPEEPPNICQLIPELELLPEKEKEKEKEKEDDEEEEDEDASGGDQDQEERRWNKRTQQMLHGLQRALAKTGAESISLLELCRNTNRKQAAAKFYSFLVLKKQQAIELTQEEPYSDIIATPGPRFHII | – | binds
